In US20150368299A1:
Results are given in words; binding and its absence hold for the method and conditions named.

Target: sAPPα (Sigma) (UniProt P05067)
Assay: condition: relation >1000 against Aβ(20-42) globulomer; first dot 1 pmol; dot blot with densitometry, antibody 0.2 µg/ml

binding: no binding
B1: murine monoclonal anti-Aβ(20-42) globulomer antibody m4C9 (antibody, V domains shown)
VH: QVQLQQPGAELVKPGASVKLSCKAPGYTFTSYWMHWVKQRPGQGLEWIGRIDPKSGDTKYTEKFKSKATLTVDKPSSTAYMQLSSLTSEDSAVYYCTTMSKLSGTHAWFAYWGQGTLVTVSA
VL: DIKMTQSPSSMYASLGERVTITCKASQDINSYLTWFQQKPGKSPKTLIYRANRLVDGVPSRFSGSGSGQDYSLTISSLEYEDMGIYYCLQYDEFPLTFGAGTKLELK
